Assay results: PMC7796407
Results are given in words; binding and its absence hold for the method and conditions named.

By UniProt entry, the sequences of proteins in these tests, tags left out.
UniProt P07305: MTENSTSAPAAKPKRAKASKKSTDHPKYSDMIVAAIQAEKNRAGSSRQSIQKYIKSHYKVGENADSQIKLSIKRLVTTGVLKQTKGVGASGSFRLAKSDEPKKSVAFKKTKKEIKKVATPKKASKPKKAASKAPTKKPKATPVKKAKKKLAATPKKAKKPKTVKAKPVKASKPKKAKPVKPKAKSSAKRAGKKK

Target: recombinant human histone 1 (human) (UniProt P07305)
Assay: far-Western, overlay or dot blot; 50 ng of each recombinant human histone resolved on a 15% SDS-polyacrylamide gel, transferred on PVDF membrane, probed with biotinylated IGFBP-3, detected with streptavidin-HRP; both purified

- binding: no binding (tested: 50 ng)
Substance: biotinylated human IGFBP-3 (insulin-like growth factor binding protein-3) (from UniProt P17936 28-291)
